# Results as given in publication PMC12431657, “Discovery and mechanistic insights of dibenzoylmethane as a broad spectrum inhibitor of coronavirus” (PLOS Pathogens, 2025).
# Structures can show the parent of a compound that is named as a salt. Where two headings read alike, the source gives them in different places. Out of some 3,300 compounds screened, about 95 (3%) showed an effect of 50% or more. Some of the results follow.
# Tested on: HCoV-229E
# Design: species or system Huh-7; HTS, protection from HCoV-229E induced cell death, luminescent cell viability (CellCounting-Lite 2.0), inhibition rate
# Details: 24 h post infection, 1 h compound pre-incubation, 10 µM, inhibitor
SMILES,229E Inhibition rate [%],"229E Inhibition rate (229E Inhibition rate, 24 h) [%]"
NC(=O)c1ncn([C@@H]2O[C@H](CO)[C@@H](O)[C@H]2O)c1N [AICAR (phosphate)],10.5,
CC1(C)[C@@H](O[C@@H]2OC[C@H](O[C@@H]3O[C@H](CO)[C@@H](O)[C@H](O)[C@H]3O[C@@H]3OC[C@@H](O)[C@H](O)[C@H]3O)[C@H](O)[C@H]2O[C@@H]2O[C@H](CO)[C@@H](O)[C@H](O)[C@H]2O)CC[C@]2(C)[C@H]3CC[C@]45OC[C@@]6(CC[C@](C)(C=O)C[C@H]64)[C@H](O)C[C@@]5(C)[C@]3(C)CC[C@@H]12 [Ardisiacrispin A],0.2,
COc1cc(CCO)ccc1O [Homovanillyl alcohol],6.3,
O=C(O)c1ccc[nH]1 [Pyrrole-2-carboxylic acid],6.8,
O=c1c(O)c(-c2ccc(O)c(O)c2)oc2cc(O)cc(O)c12 [Quercetin],,23.2
CCCC(=O)C(=O)O [2-Oxovaleric acid],0,
C[Se]CC[C@H](N)C(=O)O [L-SelenoMethionine],,10
CC[C@]12CCCN3CCc4c(n(c5ccccc45)C(=O)C1)[C@@H]32 [Vinburnine],22.5,
NC(=O)c1[nH]cnc1N [5-Amino-3H-imidazole-4-Carboxamide],6.7,
COc1cc2c(cc1O)[C@@H](Cc1ccc(O)c(Oc3ccc(C[C@@H]4c5cc(OC)c(OC)cc5CCN4C)cc3)c1)N(C)CC2 [Daurisoline],24.5,
CC(=O)NCCCCN [N-Acetylputrescine hydrochloride],17.4,
CC(=O)O[C@H]1[C@H](O[C@H]2CC[C@]34C[C@]35CC[C@]3(C)[C@@H]([C@@]6(C)CC[C@@H](C(C)(C)O)O6)[C@@H](O)C[C@@]3(C)[C@@H]5C[C@H](O[C@@H]3O[C@H](CO)[C@@H](O)[C@H](O)[C@H]3O)[C@H]4C2(C)C)OC[C@@H](O)[C@@H]1O [Astragaloside II],11.5,
C[C@@H]1O[C@@H]1P(=O)(O)O [Fosfomycin (sodium)],11.3,
COc1c(C(C)C)cc2c(c1O)[C@@]1(C(=O)O)CCCC(C)(C)[C@@H]1CC2 [12-O-Methylcarnosic acid],16.8,
COC1[C@H](O)[C@@H](O)C(O)[C@H](O)[C@H]1O (stereo partly drawn) [L-Quebrachitol],10.1,
C[C@@H]1CCC=C2C(=O)C[C@H]3OOC(C)(C)[C@H]3[C@]21C [Nardosinone],6.2,
COC(=O)C1=CO[C@@H](C)[C@@H]2CN3CC[C@@]4(C(=O)Nc5ccccc54)[C@@H]3C[C@H]12 [Isopteropodine],13.3,

# Another view of part of the listing above.
SMILES | 229E Inhibition rate [%] | 229E Inhibition rate (229E Inhibition rate, 24 h) [%]
C[C@@H]1O[C@@H]1P(=O)(O)O [Fosfomycin (sodium)] | 11.3 | 
COc1c(C(C)C)cc2c(c1O)[C@@]1(C(=O)O)CCCC(C)(C)[C@@H]1CC2 [12-O-Methylcarnosic acid] | 16.8 | 
